# Test results: the supplement of paper PMC8728848
# The other results are listed elsewhere or left out.
# B1: Pwp6 (Candida glabrata) (protein)
# chain: MGSSHHHHHHSSGLVPRGSHMASANLPKLTNICQIPDNVKKTSGFKGEIRRIGLFPPGGDYTYLLKFPSTGSTASDTISLTTKPQLSTSGWFPSLFGHTYFIKADLLVYMVAYFVPTETGEYTFKLVNSDDAAVMYVGNPSAFPCGSIDTWPEPRKEDINVCDKISASTKLYMEKGLAYPVRLVWYNGGGDGQFNAQFIDPSGTTHTDWNGYVWQYDACTDCDYK
# Assays:
# Assay in all cases: glycan array binding signal (z-score within array); higher = stronger binding
# Conditions in all cases: glycan notation: IUPAC condensed, linker removed
# Gal6S(b1-4)Glc6S = target: Gal6S(b1-4)Glc6S
# How it was run: (§1)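 Arrays were curated from the Consortium for Functional Glycomics database, 3228 in total, and kept only where the protein sequence was available. Binding is expressed as a within-array Z-score. This score was averaged across arrays of the same protein sequence at different concentrations or buffers and across linkers, and negative values can be read as non-binding.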
# Gal6S(b1-4)GlcNAc = target: Gal6S(b1-4)GlcNAc
# How it was run: as §1
# Gal6S(b1-4)GlcNAc6S = target: Gal6S(b1-4)GlcNAc6S
# How it was run: as §1
# GalNAc(a1-3)Gal = target: GalNAc(a1-3)Gal
# How it was run: as §1
# GalNAc(a1-3)GalNAc = target: GalNAc(a1-3)GalNAc
# How it was run: as §1
# [1] = target: GalNAc(a1-3)GalNAc(b1-3)Gal(a1-4)Gal(b1-4)Glc
# How it was run: as §1
# [2] = target: GalNAc(a1-3)GalNAc(b1-3)Gal(a1-4)Gal(b1-4)GlcNAc
# How it was run: as §1
# GalNAc(b1-3)Gal = target: GalNAc(b1-3)Gal
# How it was run: as §1
# [3] = target: GalNAc(b1-3)Gal(a1-4)Gal(b1-4)GlcNAc
# How it was run: as §1
# [4] = target: GalNAc(b1-3)Gal(a1-4)Gal(b1-4)GlcNAc(b1-3)Gal(b1-4)Glc
# How it was run: as §1
# [5] = target: GalNAc(b1-3)Gal(a1-6)Gal(b1-4)Glc
# How it was run: as §1
# GalNAc(b1-3)GalNAc = target: GalNAc(b1-3)GalNAc
# How it was run: as §1
# GalNAc(b1-3)GlcNAc = target: GalNAc(b1-3)GlcNAc
# How it was run: as §1
# GalNAc(b1-4)Gal(b1-4)Glc = target: GalNAc(b1-4)Gal(b1-4)Glc
# How it was run: as §1
# GalNAc(b1-4)GlcNAc = target: GalNAc(b1-4)GlcNAc
# How it was run: as §1
# [6] = target: GalNAc(b1-4)GlcNAc(b1-2)Man
# How it was run: as §1
# [7] = target: GalNAc(b1-4)GlcNAc(b1-2)Man(a1-3)[GalNAc(b1-4)GlcNAc(b1-2)Man(a1-6)]Man(b1-4)GlcNAc(b1-4)GlcNAc
# How it was run: as §1
# [8] = target: GalNAc(b1-4)GlcNAc(b1-3)GalNAc(b1-4)GlcNAc
# How it was run: as §1
# GalNAc(b1-4)GlcNAc6S = target: GalNAc(b1-4)GlcNAc6S
# How it was run: as §1
# GalNAc(b1-6)GalNAc = target: GalNAc(b1-6)GalNAc
# How it was run: as §1
# GalNAc3S(b1-4)GlcNAc = target: GalNAc3S(b1-4)GlcNAc
# How it was run: as §1
# GalNAc3S(b1-4)GlcNAc3S = target: GalNAc3S(b1-4)GlcNAc3S
# How it was run: as §1
# [9] = target: GalNAc3S(b1-4)[Fuc(a1-3)]GlcNAc
# How it was run: as §1
# GalNAc4S6S(b1-4)GlcNAc = target: GalNAc4S6S(b1-4)GlcNAc
# How it was run: as §1
# GalNAc6S(b1-4)GlcNAc = target: GalNAc6S(b1-4)GlcNAc
# How it was run: as §1
# Glc(a1-4)Glc = target: Glc(a1-4)Glc
# How it was run: as §1
# [10] = target: Glc(a1-4)Glc(a1-4)Glc(a1-4)Glc
# How it was run: as §1
# Glc(a1-6)Glc(a1-6)Glc = target: Glc(a1-6)Glc(a1-6)Glc
# How it was run: as §1
# [11] = target: Glc(a1-6)Glc(a1-6)Glc(a1-6)Glc
# How it was run: as §1
# Glc(b1-4)Glc = target: Glc(b1-4)Glc
# How it was run: as §1
# Glc(b1-6)Glc = target: Glc(b1-6)Glc
# How it was run: as §1
# GlcA(b1-3)Gal = target: GlcA(b1-3)Gal
# How it was run: as §1
# GlcA(b1-3)GlcNAc = target: GlcA(b1-3)GlcNAc
# How it was run: as §1
# GlcA(b1-6)Gal = target: GlcA(b1-6)Gal
# How it was run: as §1
# [12] = target: GlcA3S(b1-3)Gal(b1-4)GlcNAc(b1-2)Man
# How it was run: as §1
# [13] = target: GlcA3S(b1-3)Gal(b1-4)GlcNAc(b1-3)Gal(b1-4)Glc
# How it was run: as §1
# [14] = target: GlcNAc(a1-3)Gal(b1-4)GlcNAc
# How it was run: as §1
# [15] = target: GlcNAc(a1-4)Gal(b1-3)GlcNAc
# How it was run: as §1
# [16] = target: GlcNAc(a1-4)Gal(b1-4)GalNAc
# How it was run: as §1
# [17] = target: GlcNAc(a1-4)Gal(b1-4)GlcNAc
# How it was run: as §1
# [18] = target: GlcNAc(a1-4)Gal(b1-4)GlcNAc(b1-3)Gal(b1-4)Glc
# How it was run: as §1
# [19] = target: GlcNAc(a1-4)Gal(b1-4)GlcNAc(b1-3)Gal(b1-4)GlcNAc
# How it was run: as §1
# [20] = target: GlcNAc(a1-4)Gal(b1-4)GlcNAc(b1-3)Gal(b1-4)GlcNAc(b1-3)Gal(b1-4)GlcNAc
# How it was run: as §1
# [21] = target: GlcNAc(a1-4)Gal(b1-4)GlcNAc(b1-3)Gal(b1-4)[Fuc(a1-3)]GlcNAc(b1-3)Gal(b1-4)[Fuc(a1-3)]GlcNAc
# How it was run: as §1
# [22] = target: GlcNAc(a1-6)Gal(b1-4)GlcNAc
# How it was run: as §1
binder,measurement,setting,value
B1,glycan array binding signal (z-score),Gal6S(b1-4)Glc6S,-0.337
same,glycan array binding signal (z-score),Gal6S(b1-4)GlcNAc,-0.604
same,glycan array binding signal (z-score),Gal6S(b1-4)GlcNAc6S,-0.642
same,glycan array binding signal (z-score),GalNAc(a1-3)Gal,-0.686
same,glycan array binding signal (z-score),GalNAc(a1-3)GalNAc,-0.809
same,glycan array binding signal (z-score),[1],-0.294
same,glycan array binding signal (z-score),[2],0.224
same,glycan array binding signal (z-score),GalNAc(b1-3)Gal,-0.741
same,glycan array binding signal (z-score),[3],-0.705
same,glycan array binding signal (z-score),[4],0.152
same,glycan array binding signal (z-score),[5],-0.563
same,glycan array binding signal (z-score),GalNAc(b1-3)GalNAc,-0.574
same,glycan array binding signal (z-score),GalNAc(b1-3)GlcNAc,-0.654
same,glycan array binding signal (z-score),GalNAc(b1-4)Gal(b1-4)Glc,-0.167
same,glycan array binding signal (z-score),GalNAc(b1-4)GlcNAc,-0.462
same,glycan array binding signal (z-score),[6],-0.356
same,glycan array binding signal (z-score),[7],2
same,glycan array binding signal (z-score),[8],-0.059
same,glycan array binding signal (z-score),GalNAc(b1-4)GlcNAc6S,-0.57
same,glycan array binding signal (z-score),GalNAc(b1-6)GalNAc,-0.446
same,glycan array binding signal (z-score),GalNAc3S(b1-4)GlcNAc,-0.738
same,glycan array binding signal (z-score),GalNAc3S(b1-4)GlcNAc3S,2.33
same,glycan array binding signal (z-score),[9],-0.543
same,glycan array binding signal (z-score),GalNAc4S6S(b1-4)GlcNAc,2.08
same,glycan array binding signal (z-score),GalNAc6S(b1-4)GlcNAc,0.087
same,glycan array binding signal (z-score),Glc(a1-4)Glc,-0.583
same,glycan array binding signal (z-score),[10],-0.556
same,glycan array binding signal (z-score),Glc(a1-6)Glc(a1-6)Glc,-0.335
same,glycan array binding signal (z-score),[11],-0.252
same,glycan array binding signal (z-score),Glc(b1-4)Glc,-0.56
same,glycan array binding signal (z-score),Glc(b1-6)Glc,-0.526
same,glycan array binding signal (z-score),GlcA(b1-3)Gal,-0.631
same,glycan array binding signal (z-score),GlcA(b1-3)GlcNAc,-0.597
same,glycan array binding signal (z-score),GlcA(b1-6)Gal,-0.367
same,glycan array binding signal (z-score),[12],0.513
same,glycan array binding signal (z-score),[13],-0.195
same,glycan array binding signal (z-score),[14],-0.801
same,glycan array binding signal (z-score),[15],-0.602
same,glycan array binding signal (z-score),[16],-0.433
same,glycan array binding signal (z-score),[17],-0.722
same,glycan array binding signal (z-score),[18],-0.156
same,glycan array binding signal (z-score),[19],0.544
same,glycan array binding signal (z-score),[20],-0.388
same,glycan array binding signal (z-score),[21],0.097
same,glycan array binding signal (z-score),[22],-0.818

# 2 entries from above, set out differently.
binder | measurement | setting | value
B1 | glycan array binding signal (z-score) | [16] | -0.433
same | glycan array binding signal (z-score) | [17] | -0.722
